{"source": "patent US7935806B2", "about": "“Method for performing in vitro diagnosis using gene regulation mechanisms and corresponding diagnosis kit” (Unisensor S.A., priority 2001, dated 2011)", "origin": "cited, not measured here", "test_system": "ribosomes", "conditions": "cited from earlier work", "note": "At least one compound was matched to its structure with a doubt left.", "data": [{"smiles": "CN(C)[C@@H]1C(O)=C(C(N)=O)C(=O)[C@@]2(O)C(O)=C3C(=O)c4c(O)cccc4[C@@](C)(O)[C@H]3C[C@@H]12", "note": "[tetracycline]", "values": [{"measurement": "affinity of Tc for ribosomes", "result": "10^6 M^−1"}]}]}
